Data: US20220151976A1 (UNIVERSITY OF TOLEDO, published 2022)
Results are given in words; binding and its absence hold for the method and conditions named. For some assays here: Binding seen in cells or lysates may run through a third protein. Some results given as binding are weak or reduced against the parent protein; the word gives no strength. For some assays here: Sequences can lack the tags named with a protein.

The chains behind the UniProt entries cited, without tags or fusion partners. Where a name states a change or a piece, a line headed by the entry shows the natural chain unless it says otherwise. Residues count along the entry.
UniProt P60842, residues 2-406: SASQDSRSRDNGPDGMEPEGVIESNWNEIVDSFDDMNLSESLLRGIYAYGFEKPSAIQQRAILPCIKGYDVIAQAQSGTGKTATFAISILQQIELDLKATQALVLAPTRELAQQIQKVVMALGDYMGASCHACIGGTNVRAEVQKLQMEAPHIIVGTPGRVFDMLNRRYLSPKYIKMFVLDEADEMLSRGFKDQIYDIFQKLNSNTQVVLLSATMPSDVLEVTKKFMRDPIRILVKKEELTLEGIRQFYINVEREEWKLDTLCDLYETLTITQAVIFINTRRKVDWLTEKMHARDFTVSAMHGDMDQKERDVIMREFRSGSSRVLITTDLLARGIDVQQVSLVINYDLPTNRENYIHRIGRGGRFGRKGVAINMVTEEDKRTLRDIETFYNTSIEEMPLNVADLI
UniProt P23588: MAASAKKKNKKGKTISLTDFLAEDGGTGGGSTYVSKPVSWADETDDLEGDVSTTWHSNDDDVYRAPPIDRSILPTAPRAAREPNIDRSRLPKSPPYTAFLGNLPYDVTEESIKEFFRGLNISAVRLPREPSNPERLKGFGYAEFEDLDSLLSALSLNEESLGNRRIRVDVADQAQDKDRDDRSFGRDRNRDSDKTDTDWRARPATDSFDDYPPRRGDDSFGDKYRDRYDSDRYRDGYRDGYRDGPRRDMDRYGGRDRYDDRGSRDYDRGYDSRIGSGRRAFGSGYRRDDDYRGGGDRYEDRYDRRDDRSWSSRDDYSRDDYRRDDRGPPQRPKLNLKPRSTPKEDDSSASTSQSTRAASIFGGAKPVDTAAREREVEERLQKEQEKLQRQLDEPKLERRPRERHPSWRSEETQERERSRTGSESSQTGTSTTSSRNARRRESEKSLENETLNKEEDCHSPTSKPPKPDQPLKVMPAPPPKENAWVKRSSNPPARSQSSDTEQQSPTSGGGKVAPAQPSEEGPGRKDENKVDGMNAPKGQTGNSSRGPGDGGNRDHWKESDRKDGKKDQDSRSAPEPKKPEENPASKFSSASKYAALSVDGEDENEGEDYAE
UniProt P06730: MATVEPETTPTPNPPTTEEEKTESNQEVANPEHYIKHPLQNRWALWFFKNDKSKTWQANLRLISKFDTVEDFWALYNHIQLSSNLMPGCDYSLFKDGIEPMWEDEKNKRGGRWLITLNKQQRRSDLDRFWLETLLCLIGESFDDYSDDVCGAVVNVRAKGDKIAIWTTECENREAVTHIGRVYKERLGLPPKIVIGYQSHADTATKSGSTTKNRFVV
UniProt Q04637: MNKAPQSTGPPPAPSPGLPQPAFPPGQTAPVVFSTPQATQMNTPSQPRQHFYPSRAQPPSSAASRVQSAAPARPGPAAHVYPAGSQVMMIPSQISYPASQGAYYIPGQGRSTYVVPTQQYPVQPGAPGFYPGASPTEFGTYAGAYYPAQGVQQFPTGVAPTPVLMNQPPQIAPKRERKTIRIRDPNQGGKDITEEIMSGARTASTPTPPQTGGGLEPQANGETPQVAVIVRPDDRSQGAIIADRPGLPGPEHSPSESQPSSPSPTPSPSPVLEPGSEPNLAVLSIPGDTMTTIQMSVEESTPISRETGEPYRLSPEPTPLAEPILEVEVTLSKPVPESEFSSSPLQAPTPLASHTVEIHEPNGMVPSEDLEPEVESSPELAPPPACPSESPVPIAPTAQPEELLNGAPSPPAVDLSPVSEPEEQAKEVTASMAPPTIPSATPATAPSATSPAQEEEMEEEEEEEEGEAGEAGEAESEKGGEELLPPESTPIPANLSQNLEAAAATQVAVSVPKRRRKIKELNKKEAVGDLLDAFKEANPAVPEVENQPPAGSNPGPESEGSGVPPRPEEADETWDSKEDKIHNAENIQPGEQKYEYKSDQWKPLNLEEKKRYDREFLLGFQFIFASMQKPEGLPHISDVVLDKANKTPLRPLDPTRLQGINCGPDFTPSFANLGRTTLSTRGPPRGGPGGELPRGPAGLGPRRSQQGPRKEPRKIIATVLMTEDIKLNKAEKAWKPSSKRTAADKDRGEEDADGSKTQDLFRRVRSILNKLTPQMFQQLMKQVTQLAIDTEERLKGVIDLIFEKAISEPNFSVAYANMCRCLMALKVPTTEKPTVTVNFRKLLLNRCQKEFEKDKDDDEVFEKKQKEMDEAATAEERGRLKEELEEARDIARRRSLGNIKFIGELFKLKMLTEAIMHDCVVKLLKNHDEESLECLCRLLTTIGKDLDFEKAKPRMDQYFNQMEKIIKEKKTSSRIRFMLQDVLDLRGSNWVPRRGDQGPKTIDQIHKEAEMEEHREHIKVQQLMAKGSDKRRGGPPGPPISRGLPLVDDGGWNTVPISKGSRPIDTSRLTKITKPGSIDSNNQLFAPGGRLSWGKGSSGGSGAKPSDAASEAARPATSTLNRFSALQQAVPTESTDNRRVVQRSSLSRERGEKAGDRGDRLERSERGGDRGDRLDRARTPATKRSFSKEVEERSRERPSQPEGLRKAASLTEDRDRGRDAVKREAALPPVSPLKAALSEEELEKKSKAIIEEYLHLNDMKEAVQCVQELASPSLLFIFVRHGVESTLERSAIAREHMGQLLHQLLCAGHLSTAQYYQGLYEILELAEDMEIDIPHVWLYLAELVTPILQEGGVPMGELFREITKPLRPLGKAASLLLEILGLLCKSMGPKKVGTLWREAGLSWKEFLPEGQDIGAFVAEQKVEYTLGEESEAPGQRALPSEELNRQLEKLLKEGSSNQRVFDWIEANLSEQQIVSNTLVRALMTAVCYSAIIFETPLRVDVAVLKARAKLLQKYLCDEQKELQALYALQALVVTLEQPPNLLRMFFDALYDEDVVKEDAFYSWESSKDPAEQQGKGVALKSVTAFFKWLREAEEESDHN

Legend:
[1] = biological target: T1, LIM and SH3 Protein 1 (LASP1), endogenous in 231S cells (human) (UniProt Q14847); assay: co-immunoprecipitation (eIF4A IP, LASP1 blot) from 231S lysate
T1 sequence (looked up): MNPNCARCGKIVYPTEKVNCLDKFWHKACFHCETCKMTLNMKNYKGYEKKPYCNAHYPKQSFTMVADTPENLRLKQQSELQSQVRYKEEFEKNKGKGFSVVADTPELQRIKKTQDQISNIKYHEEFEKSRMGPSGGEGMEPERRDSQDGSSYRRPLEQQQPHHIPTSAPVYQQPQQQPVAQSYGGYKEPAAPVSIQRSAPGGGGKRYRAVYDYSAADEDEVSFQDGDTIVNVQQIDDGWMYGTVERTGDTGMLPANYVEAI

[2] = biological target: Eukaryotic initiation factor 4A (eIF4A1), endogenous in 231S cells (human) (UniProt P60842); assay: GST-LASP1 pulldown from 231S lysate
[3] = biological target: Eukaryotic initiation factor 4A (eIF4A1), endogenous in 231S cells (human) (UniProt P60842); assay: GST-LASP1 pulldown from 231S lysate, Western blot
[4] = biological target: Eukaryotic initiation factor 4B (eIF4B), endogenous in 231S cells (human) (UniProt P23588); assay: GST-LASP1 pulldown from 231S lysate, Western blot
[5] = biological target: purified recombinant eIF4B (UniProt P23588); assay: equimolar purified proteins mixed in solution, captured with glutathione beads, Western blot
[6] = biological target: purified recombinant eIF4B (UniProt P23588); assay: GST-LASP1 beads with purified recombinant protein, Western blot
[7] = biological target: purified recombinant eIF4B (UniProt P23588); assay: GST-LASP1 pulldown of purified protein (legend of FIGS. 4A-4F)
[8] = biological target: Eukaryotic initiation factor 4A (eIF4A1), endogenous in 231S cells (human) (UniProt P60842); assay: GST-LASP1 pulldown
[9] = biological target: Eukaryotic initiation factor 4B (eIF4B), endogenous in 231S cells (human) (UniProt P23588); assay: GST-LASP1 pulldown
[10] = biological target: T2, eukaryotic initiation factor 4F complex (eIF4F), endogenous in 231S cells (human) (UniProt P06730+P60842+Q04637); assay: co-immunoprecipitation and m7GTP pulldown in 231S cells (legend of FIGS. 3A-3E)
[11] = biological target: T2, eukaryotic initiation factor 4F complex (eIF4F), endogenous in 231S cells (human); assay: m7-GTP pulldown together with direct binding studies

Measured: binding

Eukaryotic initiation factor 4A (eIF4A1), endogenous in 231S cells (from UniProt P60842 2-406) (enzyme)
binds: [1]

B1: GST-LASP1 (human LASP1 open reading frame in pGEX-6P-1, made in E. coli BL21) (protein, UniProt Q14847 1-261, looked up, not shown: a dimerising Fc or GST)
chain: MNPNCARCGKIVYPTEKVNCLDKFWHKACFHCETCKMTLNMKNYKGYEKKPYCNAHYPKQSFTMVADTPENLRLKQQSELQSQVRYKEEFEKNKGKGFSVVADTPELQRIKKTQDQISNIKYHEEFEKSRMGPSGGEGMEPERRDSQDGSSYRRPLEQQQPHHIPTSAPVYQQPQQQPVAQSYGGYKEPAAPVSIQRSAPGGGGKRYRAVYDYSAADEDEVSFQDGDTIVNVQQIDDGWMYGTVERTGDTGMLPANYVEAI
not listed: [1] | [10] | [11]
binds: all other assays above

B2: LIM and SH3 Protein 1 (LASP1), endogenous in 231S cells (other, human, UniProt Q14847 1-261, looked up)
chain: MNPNCARCGKIVYPTEKVNCLDKFWHKACFHCETCKMTLNMKNYKGYEKKPYCNAHYPKQSFTMVADTPENLRLKQQSELQSQVRYKEEFEKNKGKGFSVVADTPELQRIKKTQDQISNIKYHEEFEKSRMGPSGGEGMEPERRDSQDGSSYRRPLEQQQPHHIPTSAPVYQQPQQQPVAQSYGGYKEPAAPVSIQRSAPGGGGKRYRAVYDYSAADEDEVSFQDGDTIVNVQQIDDGWMYGTVERTGDTGMLPANYVEAI
notes: Endogenous intracellular protein; detected or immunoprecipitated with mouse LASP1 antibody 8C6 (Biolegend 909301); also called endogenous LASP1
binds: [10] | [11]
